We go through one substance from paper PMC4172784.

Amino acid sequences for entries named in this document (tags omitted). A change or cut given only in a name is not applied to a line headed by its entry. Chains listed by the source or under a name are the forms on record and can include a tag or linker.
UniProt P19563: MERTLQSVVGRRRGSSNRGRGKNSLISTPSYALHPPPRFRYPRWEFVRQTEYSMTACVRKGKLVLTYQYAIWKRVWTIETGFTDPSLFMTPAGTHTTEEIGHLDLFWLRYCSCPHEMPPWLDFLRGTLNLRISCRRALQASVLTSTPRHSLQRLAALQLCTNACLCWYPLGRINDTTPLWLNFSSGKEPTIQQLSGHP
Flag-tagged btCBF-β (VR-btCBF-β-flag) (E1B9S8, form named): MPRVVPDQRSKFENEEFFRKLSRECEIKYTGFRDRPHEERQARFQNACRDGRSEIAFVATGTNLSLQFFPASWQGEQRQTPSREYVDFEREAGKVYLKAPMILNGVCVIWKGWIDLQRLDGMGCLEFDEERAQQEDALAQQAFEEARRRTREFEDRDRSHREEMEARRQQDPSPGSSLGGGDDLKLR

The target in the assay is cmyc-tagged BIV Vif (VR-BIV Vif-cmyc) (bovine immunodeficiency virus (BIV BIM127)) (UniProt P19563). Put plainly: co-IP; 293T cells co-transfected with cmyc-tagged Vif and Flag-tagged CBF-β; lysate with anti-cmyc antibody 1 h, then Protein G-agarose, 4°C, 3 h; immunoblot with anti-cmyc and anti-Flag. (In general: In western blotting, separated proteins are transferred to a membrane and probed.)

Results are given in words; binding and its absence hold for the method and conditions named. Binding seen in cells or lysates may run through a third protein.

For “Flag-tagged btCBF-β (VR-btCBF-β-flag) (from UniProt E1B9S8 1-187)”, the binding entry is “no binding”.
